Experimental data: patent US20050209148A1 (RINAT NEUROSCIENCE, published 2005)
No constants are given. Whether binding was seen depends on the method and setting. Some results given as binding are weak or reduced against the parent protein; the word gives no strength.

Sequences of proteins named here, by UniProt entry; tags and fusion partners are left off. Residues count along the entry.
UniProt Q16620, residues 32-430: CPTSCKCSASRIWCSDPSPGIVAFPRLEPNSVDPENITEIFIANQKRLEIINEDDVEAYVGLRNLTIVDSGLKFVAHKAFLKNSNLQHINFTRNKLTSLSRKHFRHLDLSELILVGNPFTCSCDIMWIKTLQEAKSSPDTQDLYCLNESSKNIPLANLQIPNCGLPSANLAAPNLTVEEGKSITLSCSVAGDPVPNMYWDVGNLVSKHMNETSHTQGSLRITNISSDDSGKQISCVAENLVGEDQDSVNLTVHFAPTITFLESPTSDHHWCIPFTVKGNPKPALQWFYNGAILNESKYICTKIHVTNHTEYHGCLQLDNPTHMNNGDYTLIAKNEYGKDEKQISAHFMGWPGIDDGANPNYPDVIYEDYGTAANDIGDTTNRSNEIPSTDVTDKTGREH

Target: human TrkB receptor (as used in the BIAcore assay) (human) (UniProt Q16620)
Experiment: BIAcore (SPR), in the presence of Mab1241 Fab; data not shown

B1: human NT-4/5 (mature human neurotrophin-4/5) (ligand)
chain: GVSETAPASRRGELAVCDAVSGWVTDRRTAVDLRGREVEVLGEVPAAGGSPLRQYFFETRCKADNAEEGGPGAGGGGCRGVDRRHWVSECKAKQSYVRALTADAQGRVGWRWIRIDTACVCTLLSRTGRA
**Q.** Which binding does the source give for B1 here?
**A.** binds
